Measurements reported in paper PMC11335345.
Results are given in words; binding and its absence hold for the method and conditions named. In cells and extracts the contact can be indirect. Some binding calls cover weakened binding; strength is not graded here. Sequences can lack the tags named with a protein.

Protein sequences, listed by entry. Tags and fused reporters are not part of them.
UniProt Q9WTX5: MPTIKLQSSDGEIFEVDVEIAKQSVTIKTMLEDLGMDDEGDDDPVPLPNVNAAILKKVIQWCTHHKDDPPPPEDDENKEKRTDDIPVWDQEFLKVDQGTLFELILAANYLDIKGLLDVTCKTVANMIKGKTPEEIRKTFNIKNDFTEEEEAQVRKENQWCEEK
UniProt Q14974: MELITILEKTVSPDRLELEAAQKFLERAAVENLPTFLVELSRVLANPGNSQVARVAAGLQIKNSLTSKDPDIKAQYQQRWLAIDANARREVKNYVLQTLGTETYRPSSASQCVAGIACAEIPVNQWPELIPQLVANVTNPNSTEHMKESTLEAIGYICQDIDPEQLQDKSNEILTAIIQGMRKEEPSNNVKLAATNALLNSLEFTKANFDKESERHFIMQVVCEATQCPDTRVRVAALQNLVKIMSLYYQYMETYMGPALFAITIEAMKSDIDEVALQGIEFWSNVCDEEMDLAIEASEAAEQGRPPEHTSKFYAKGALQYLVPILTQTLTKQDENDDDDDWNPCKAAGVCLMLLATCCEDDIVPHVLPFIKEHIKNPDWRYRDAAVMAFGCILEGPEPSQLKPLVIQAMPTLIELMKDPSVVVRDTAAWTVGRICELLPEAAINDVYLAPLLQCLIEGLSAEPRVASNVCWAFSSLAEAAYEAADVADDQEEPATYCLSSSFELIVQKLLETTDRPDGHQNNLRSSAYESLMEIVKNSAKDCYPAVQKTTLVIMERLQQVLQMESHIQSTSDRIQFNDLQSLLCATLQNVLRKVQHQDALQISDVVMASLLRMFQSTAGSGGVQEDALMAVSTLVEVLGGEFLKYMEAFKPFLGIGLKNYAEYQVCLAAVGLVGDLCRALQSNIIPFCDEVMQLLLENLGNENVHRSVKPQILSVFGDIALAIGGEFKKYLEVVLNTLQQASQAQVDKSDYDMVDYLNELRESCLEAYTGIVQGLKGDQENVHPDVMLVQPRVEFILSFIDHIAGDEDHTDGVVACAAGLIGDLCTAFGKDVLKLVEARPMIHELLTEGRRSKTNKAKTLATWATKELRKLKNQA

T1: FBXO24 (F-box protein 24) tagged with 3×FLAG, wild type (mouse) (UniProt Q9D417)
T1 sequence: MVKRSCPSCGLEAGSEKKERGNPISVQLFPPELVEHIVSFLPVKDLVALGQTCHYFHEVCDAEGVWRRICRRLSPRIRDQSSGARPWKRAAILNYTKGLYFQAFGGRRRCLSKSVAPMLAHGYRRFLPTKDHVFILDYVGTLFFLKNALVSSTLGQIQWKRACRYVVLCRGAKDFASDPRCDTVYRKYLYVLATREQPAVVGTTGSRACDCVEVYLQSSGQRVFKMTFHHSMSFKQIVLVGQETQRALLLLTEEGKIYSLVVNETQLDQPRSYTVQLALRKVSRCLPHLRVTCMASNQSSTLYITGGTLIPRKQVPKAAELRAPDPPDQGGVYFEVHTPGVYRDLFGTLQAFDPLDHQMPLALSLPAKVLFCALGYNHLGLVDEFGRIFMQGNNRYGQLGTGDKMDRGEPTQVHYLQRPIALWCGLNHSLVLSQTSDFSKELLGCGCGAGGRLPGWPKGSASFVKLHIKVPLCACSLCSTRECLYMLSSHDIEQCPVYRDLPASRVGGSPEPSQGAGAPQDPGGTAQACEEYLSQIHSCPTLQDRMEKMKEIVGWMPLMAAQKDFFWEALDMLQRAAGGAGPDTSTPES

T2: FBXO24-3×FLAG expressed in testes of transgenic mice under the Prm1 promoter (mouse) (UniProt Q9D417)
T2 sequence: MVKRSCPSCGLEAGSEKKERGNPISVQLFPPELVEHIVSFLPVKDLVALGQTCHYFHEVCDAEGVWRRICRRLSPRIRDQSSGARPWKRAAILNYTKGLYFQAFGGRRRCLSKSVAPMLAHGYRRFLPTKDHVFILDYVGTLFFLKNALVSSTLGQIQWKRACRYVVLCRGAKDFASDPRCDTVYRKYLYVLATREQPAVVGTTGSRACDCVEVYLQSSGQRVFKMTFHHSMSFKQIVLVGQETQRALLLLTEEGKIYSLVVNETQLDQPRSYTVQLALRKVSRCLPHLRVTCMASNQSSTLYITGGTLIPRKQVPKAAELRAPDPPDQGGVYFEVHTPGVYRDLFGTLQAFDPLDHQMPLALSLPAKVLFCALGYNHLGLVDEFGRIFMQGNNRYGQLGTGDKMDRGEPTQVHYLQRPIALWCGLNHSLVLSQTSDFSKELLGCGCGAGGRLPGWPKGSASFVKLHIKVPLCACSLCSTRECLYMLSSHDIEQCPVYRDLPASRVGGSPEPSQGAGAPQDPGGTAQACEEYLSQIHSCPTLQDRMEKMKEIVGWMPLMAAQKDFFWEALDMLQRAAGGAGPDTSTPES


How the values were obtained:
[1] = biological target: T1, FBXO24 (F-box protein 24) tagged with 3×FLAG, wild type (mouse); test: co-IP; 3×FLAG-tagged Fbxo24 transiently expressed in HEK293T cells; IP with anti-FLAG antibody; endogenous IPO5 and KPNB1 detected by immunoblotting
[2] = biological target: SKP1 tagged with 1D4 (mouse) (UniProt Q9WTX5); test: co-IP; Fbxo24 (WT or ΔF)-FLAG co-expressed with Skp1-1D4 in HEK293T cells; 1% Triton X-100 lysis buffer (50 mM Tris-HCl pH 7.4, 150 mM NaCl); IP with anti-1D4 or anti-FLAG antibody on Protein G magnetic beads, 1 hr at 4°C; immunoblotting
[3] = biological target: T2, FBXO24-3×FLAG expressed in testes of transgenic mice under the Prm1 promoter (mouse); test: co-IP; IP of FBXO24-FLAG from Fbxo24-FLAG Tg mouse testes with anti-FLAG antibody; IPO5 detected by immunoblotting with mouse anti-IPO5 monoclonal antibody

| binding [1] | Molecule | also measured |
| --- | --- | --- |
| no binding | KPNB1 (karyopherin subunit beta 1), endogenous in HEK293T cells (from UniProt Q14974 1-876) |  |
|  | FBXO24 (F-box protein 24) tagged with 3×FLAG, wild type (protein, UniProt Q9D417 1-589) MVKRSCPSCGLEAGSEKKERGNPISVQLFPPELVEHIVSFLPVKDLVALGQTCHYFHEVCDAEGVWRRICRRLSPRIRDQSSGARPWKRAAILNYTKGLYFQAFGGRRRCLSKSVAPMLAHGYRRFLPTKDHVFILDYVGTLFFLKNALVSSTLGQIQWKRACRYVVLCRGAKDFASDPRCDTVYRKYLYVLATREQPAVVGTTGSRACDCVEVYLQSSGQRVFKMTFHHSMSFKQIVLVGQETQRALLLLTEEGKIYSLVVNETQLDQPRSYTVQLALRKVSRCLPHLRVTCMASNQSSTLYITGGTLIPRKQVPKAAELRAPDPPDQGGVYFEVHTPGVYRDLFGTLQAFDPLDHQMPLALSLPAKVLFCALGYNHLGLVDEFGRIFMQGNNRYGQLGTGDKMDRGEPTQVHYLQRPIALWCGLNHSLVLSQTSDFSKELLGCGCGAGGRLPGWPKGSASFVKLHIKVPLCACSLCSTRECLYMLSSHDIEQCPVYRDLPASRVGGSPEPSQGAGAPQDPGGTAQACEEYLSQIHSCPTLQDRMEKMKEIVGWMPLMAAQKDFFWEALDMLQRAAGGAGPDTSTPES | binding [2]: binds |
| binds | IPO5 (importin 5), endogenous in HEK293T cells (protein, UniProt O00410 1-1097) MAAAAAEQQQFYLLLGNLLSPDNVVRKQAEETYENIPGQSKITFLLQAIRNTTAAEEARQMAAVLLRRLLSSAFDEVYPALPSDVQTAIKSELLMIIQMETQSSMRKKVCDIAAELARNLIDEDGNNQWPEGLKFLFDSVSSQNVGLREAALHIFWNFPGIFGNQQQHYLDVIKRMLVQCMQDQEHPSIRTLSARATAAFILANEHNVALFKHFADLLPGFLQAVNDSCYQNDDSVLKSLVEIADTVPKYLRPHLEATLQLSLKLCGDTSLNNMQRQLALEVIVTLSETAAAMLRKHTNIVAQTIPQMLAMMVDLEEDEDWANADELEDDDFDSNAVAGESALDRMACGLGGKLVLPMIKEHIMQMLQNPDWKYRHAGLMALSAIGEGCHQQMEGILNEIVNFVLLFLQDPHPRVRYAACNAVGQMATDFAPGFQKKFHEKVIAALLQTMEDQGNQRVQAHAAAALINFTEDCPKSLLIPYLDNLVKHLHSIMVLKLQELIQKGTKLVLEQVVTSIASVADTAEEKFVPYYDLFMPSLKHIVENAVQKELRLLRGKTIECISLIGLAVGKEKFMQDASDVMQLLLKTQTDFNDMEDDDPQISYMISAWARMCKILGKEFQQYLPVVMGPLMKTASIKPEVALLDTQDMENMSDDDGWEFVNLGDQQSFGIKTAGLEEKSTACQMLVCYAKELKEGFVEYTEQVVKLMVPLLKFYFHDGVRVAAAESMPLLLECARVRGPEYLTQMWHFMCDALIKAIGTEPDSDVLSEIMHSFAKCIEVMGDGCLNNEHFEELGGILKAKLEEHFKNQELRQVKRQDEDYDEQVEESLQDEDDNDVYILTKVSDILHSIFSSYKEKVLPWFEQLLPLIVNLICPHRPWPDRQWGLCIFDDVIEHCSPASFKYAEYFLRPMLQYVCDNSPEVRQAAAYGLGVMAQYGGDNYRPFCTEALPLLVRVIQSADSKTKENVNATENCISAVGKIMKFKPDCVNVEEVLPHWLSWLPLHEDKEEAVQTFNYLCDLIESNHPIVLGPNNTNLPKIFSIIAEGEMHEAIKHEDPCAKRLANVVRQVQTSGGLWTECIAQLSPEQQAAIQELLNSA |  |
|  | IPO5 (importin 5), endogenous in mouse testis (protein, UniProt Q8BKC5 1-1097) MAAAAAEQQQFYLLLGNLLSPDNVVRKQAEETYENIPGRSKITFLLQAIRNTTAAEEARQMAAVLLRRLLSSAFDEVYPALPSDVQTAIKSELLMIIQMETQSSMRKKICDIAAELARNLIDEDGNNQWPEGLKFLFDSVSSQNMGLREAALHIFWNFPGIFGNQQQHYLDVIKRMLVQCMQDQEHPSIRTLSARATAAFILANEHNVALFKHFADLLPGFLQAVNDSCYQNDDSVLKSLVEIADTVPKYLRPHLEATLQLSLKLCGDTNLNNMQRQLALEVIVTLSETAAAMLRKHTSLIAQTIPQMLAMMVDLEEDEDWANADELEDDDFDSNAVAGESALDRMACGLGGKLVLPMIKEHIMQMLQNPDWKYRHAGLMALSAIGEGCHQQMEGILNEIVNFVLLFLQDPHPRVRYAACNAVGQMATDFAPGFQKKFHEKVIAALLQTMEDQGNQRVQAHAAAALINFTEDCPKSLLIPYLDNLVKHLHSIMVLKLQELIQKGTKLVLEQVVTSIASVADTAEEKFVPYYDLFMPSLKHIVENAVQKELRLLRGKTIECISLIGLAVGKEKFMQDASDVMQLLLKTQTDFNDMEDDDPQISYMISAWARMCKILGKEFQQYLPVVMGPLMKTASIKPEVALLDTQDMENMSDDDGWEFVNLGDQQSFGIKTAGLEEKSTACQMLVCYAKELKEGFVEYTEQVVKLMVPLLKFYFHDGVRVAAAESMPLLLECARVRGPEYLTQMWHFMCDALIKAIGTEPDSDVLSEIMHSFAKCIEVMGDGCLNNEHFEELGGILKAKLEEHFKNQELRQVKRQDEDYDEQVEESLQDEDDNDVYILTKVSDILHSIFSSYKEKVLPWFEQLLPLIVNLICPQRPWPDRQWGLCIFDDIVEHCSPASFKYAEYFISPMLQYVCDNSPEVRQAAAYGLGVMAQFGGDNYRPFCTDALPLLVRVIQAPEAKTKENVNATENCISAVGKIMKFKPDCVNVEEVLPHWLSWLPLHEDKEEAVQTFSYLCDLIESNHPIVLGPNNTNLPKIFSIIAEGEMHEAIKHEDPCAKRLANVVRQVQTSGGLWTECIAQLSPEQQAAIQELLNSA | binding [3]: binds |
